{"source": "PubChem BioAssay AID624291", "about": "(National Center for Advancing Translational Sciences (NCATS), 2012)", "note": "Out of some 350,000 compounds screened, about 220 (0.063%) were called active. This list was built around the results that the source calls inconclusive (neither active nor inactive); the mix of calls is not that of the screen. Calls come from the whole dose curve; as a rule, active = well fitted activation curve with a large enough effect; inconclusive = small, poorly fitted or top-dose-only effect; inactive = no such curve, though single readings can be large or run the other way. Potencies of inconclusive entries are doubtful fits and often do not repeat. Potency is the fitted concentration of half-maximal effect.", "data": [{"assay": "qHTS for Activators of Integrin-Mediated Alleviation for Muscular Dystrophy; note: nearly all actives have a fitted effect of over 60% in size;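 for activation: 100% = response of the positive control SU9516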", "details": "alpha7betagal myoblasts, beta-gal FDG fluorescence, 48 h; activation: at 38.3 µM (top of the series)", "method_in_brief": "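alpha7betagal+/- myoblasts (passage 13, 250/well) treated 48 h at 37C with compounds at 1:260 dilution of DMSO stock. Lysed, then beta-galactosidase activity read as FDG fluorescence (ex 480/em 540) after 30 min, with pre-read for autofluorescence.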", "values": [{"smiles": "CC1(C)CC(=O)C(N=Nc2cccc(S(=O)(=O)N3CCOCC3)c2)=C(O)C1", "activation": "inactive: -26.7%"}, {"smiles": "CCCCCc1n[nH]c2c1CCCC2", "activation": "inactive: -5.75%"}, {"smiles": "COc1ccc(-n2ccc(=O)c(C(=O)O)n2)c(OC)c1", "activation": "inactive: 9.45%"}, {"smiles": "CCOC(=O)C1CCN(S(=O)(=O)c2ccc(CNC(=O)c3ccccc3)s2)CC1", "Potency": "inconclusive: 28.2 µM [activator, single point]"}, {"smiles": "O=C(CC(C(=O)O)c1ccccc1)Nc1ccccc1", "note": "(centres undefined)", "Potency": "inconclusive: 3.98 µM [activator, partial curve, poor fit]"}, {"smiles": "Cc1c(NC(=S)N/N=C/c2ccc(N(C)C)cc2)c(=O)n(-c2ccccc2)n1C", "activation": "inactive: 28.3%"}, {"smiles": "CCN1CCN(C(=O)/C=C/c2ccc(C)cc2)CC1", "activation": "inactive: 28.3%"}, {"smiles": "Cc1ccc(C(=O)COC(=O)CN2C(=O)C3C4C=CC(C4)C3C2=O)cc1[N+](=O)[O-]", "note": "(centres undefined)", "activation": "inactive: -9.8%"}, {"smiles": "CCCOC(=O)c1ccc(Nc2cc(C)nc3ncnn23)cc1", "Potency": "inconclusive: 31.6 µM [activator, single point]"}, {"smiles": "CC1(C)Cc2c(c(=S)nc(-c3ccccc3)n2CCO)CO1", "activation": "inconclusive: 23.5% [activator]"}, {"smiles": "CC(=O)Nc1ccc(NC(=O)CCCNC(=O)c2ccc(Cl)cc2)cc1", "Potency": "inconclusive: 11.2 µM [activator, single point]"}, {"smiles": "COc1ccc(-n2cc(CN(C)C(C)c3ccncn3)c(-c3cccc(F)c3)n2)cc1", "note": "(centres undefined)", "activation": "inactive: 18%"}, {"smiles": "COc1ccc(NC2CCCN(C(=O)c3cc4ncccn4n3)C2)cc1", "note": "(centres undefined)", "Potency": "inconclusive: 0.316 µM [activator, full curve, poor fit]"}, {"smiles": "CCc1c(C)nc2ncnn2c1N1CCCC(C(=O)NCc2cccs2)C1", "note": "(centres undefined)", "Potency": "inconclusive: 28.2 µM [activator, single point]"}, {"smiles": "CNC(=S)NNC(=O)c1cn(C)nc1C", "Potency": "inconclusive: 1 µM [activator, partial curve, poor fit]"}, {"smiles": "CCCn1c(C)cc(C(=O)COC(=O)c2nccnc2N)c1C", "Potency": "inconclusive: 22.4 µM [activator, single point]"}, {"smiles": "O=C(N/N=C/C(Br)=C\\c1ccccc1)c1ccco1", "activation": "inactive: -58.8%"}, {"smiles": "S=C(NCCCN1CCOCC1)N(Cc1ccccc1)Cc1ccccc1", "activation": "inactive: -18.7%"}, {"smiles": "O=c1[nH]c(C2CCN(S(=O)(=O)c3ccc4c(c3)OCCO4)CC2)nc2c1nnn2Cc1cccc(F)c1", "Potency": "inconclusive: 7.94 µM [activator, partial curve, poor fit]"}, {"smiles": "COc1ccccc1NS(=O)(=O)c1cc2c(cc1C)NC(=O)CO2", "activation": "inactive: -14.3%"}, {"smiles": "CCOC(=O)c1c(-c2ccccc2)nc2ccccn12", "activation": "inactive: 5.83%"}, {"smiles": "CSc1ccccc1NC(=O)COc1ccc(Cl)cc1Cl", "Potency": "inconclusive: 0.316 µM [activator, full curve, poor fit]"}, {"smiles": "Cc1cc(C)cc(NC(=O)NCC2CCN(Cc3cc(C)ccc3C)CC2)c1", "activation": "inactive: -3.82%"}, {"smiles": "N#Cc1cc(-c2ccccc2)nc(Oc2ccccc2)n1", "Potency": "inconclusive: 14.1 µM [activator, partial curve, poor fit]"}, {"smiles": "COc1ccc(NC(C)=O)cc1NS(=O)(=O)c1ccc2c(c1)OCCO2", "Potency": "inconclusive: 2.24 µM [activator, partial curve, poor fit]"}, {"smiles": "CCCc1cc2c(cc1NC(=O)c1ccccc1C)OCO2", "Potency": "inconclusive: 7.94 µM [activator, partial curve, poor fit]"}, {"smiles": "Cc1onc(-c2c(Cl)cccc2Cl)c1C(=O)N=C(N)N1CCOCC1", "Potency": "inconclusive: 2.82 µM [activator, single point]"}, {"smiles": "Cc1ccc(S(=O)(=O)NC(CC(=O)O)c2ccco2)cc1", "note": "(centres undefined)", "activation": "inactive: -1.11% [at 7.66 µM]"}, {"smiles": "CCOC(=O)c1ccc(NC(=O)c2ccnn2C)cc1", "Potency": "inconclusive: 28.2 µM [activator, single point]"}, {"smiles": "Cc1ccc(OCC(O)CN2CCN(CC(O)COc3ccc(C)cc3)CC2)cc1", "note": "(centres undefined)", "Potency": "inconclusive: 3.98 µM [activator, partial curve, poor fit]"}, {"smiles": "COc1cc(/C(C)=N/NC(=S)NC(C)C)cc(OC)c1OC", "activation": "inactive: -3.57%"}, {"smiles": "O=C(c1ccc(Cl)cc1)N1CCN(c2ncccn2)CC1", "Potency": "inconclusive: 28.2 µM [activator, single point]"}, {"smiles": "Cn1cc(C(=O)Nc2ccc(Cl)cc2)c(C(F)(F)F)n1", "Potency": "inconclusive: 3.55 µM [activator, single point]"}, {"smiles": "CCc1nc2ccc(C(=O)NCc3ccc(C)o3)cc2nc1CC", "Potency": "inconclusive: 0.501 µM [activator, full curve, poor fit]"}, {"smiles": "COc1ccccc1NC(=O)CC1CCCC1", "activation": "inactive: -31%"}, {"smiles": "O=C1CSC(=S)N1/N=C/c1ccc(C(F)(F)F)cc1", "Potency": "inconclusive: 5.01 µM [activator, single point]"}, {"smiles": "CCn1c(SCC(=O)Nc2nccs2)nnc1-c1cccnc1", "Potency": "inconclusive: 11.2 µM [activator, single point]"}, {"smiles": "COc1ccc(C2C(C(=O)c3sc(C)nc3C)=C(O)C(=O)N2CCCn2ccnc2)cc1", "note": "(centres undefined)", "Potency": "inconclusive: 28.2 µM [activator, single point]"}, {"smiles": "CCCn1c2ccccc2c2cnn(CC(=O)N(CC)CC)c(=O)c21", "Potency": "inconclusive: 1 µM [activator, full curve, poor fit]"}, {"smiles": "Cc1nnc(SC(C)C(=O)Nc2ncc(Cl)cc2Cl)n1Cc1ccccc1", "note": "(centres undefined)", "activation": "inactive: 4.79%"}, {"smiles": "CCN(CC)c1ccc(N=Nc2ncn[nH]2)cc1", "activation": "inactive: -17.8%"}, {"smiles": "N#Cc1nc(-c2ccc(F)cc2)oc1NCc1cccc2c1OCO2", "activation": "inactive: 2.71%"}, {"smiles": "COc1ccc(NC(=O)c2cccs2)cn1", "Potency": "inconclusive: 28.2 µM [activator, single point]"}, {"smiles": "COc1cccc(/C=N/NC(=O)c2cccc(N3CCCC3=O)c2)c1", "Potency": "inconclusive: 11.2 µM [activator, single point]"}, {"smiles": "O=C(/C=C/c1ccccc1)c1ccc2c3c(cccc13)CC2", "activation": "inactive: 17.3%"}, {"smiles": "O=C(Nc1cccc(S(=O)(=O)N2CCCCC2)c1)c1cncc(Br)c1", "Potency": "inconclusive: 2.24 µM [activator, partial curve, poor fit]"}, {"smiles": "COc1ccc(/C=C/C(=O)Nc2ccccc2C(=O)N2CCCC2)cc1", "activation": "inactive: 19.7%"}, {"smiles": "O=C(NNC(=S)NCc1ccccc1)c1ccc(Br)o1", "activation": "inactive: -39.1%"}, {"smiles": "Cc1ccc(/C=C/C(=O)c2ccc([N+](=O)[O-])o2)cc1", "activation": "inactive: 0%"}, {"smiles": "N/C(COc1cccc(C(F)(F)F)c1)=N\\NC(=O)c1cccnc1Oc1ccccc1", "activation": "inactive: 7.86%"}, {"smiles": "Cc1cc(C)cc(N(CC(=O)Nc2cc(C)ccc2C)S(=O)(=O)c2c(C)[nH]c(=O)[nH]c2=O)c1", "activation": "inactive: 2.07%"}, {"smiles": "CSc1nc(N)c2c3c(sc2n1)CN(C)CC3", "activation": "inactive: 2.2%"}, {"smiles": "Cc1ccc(C(=O)ONC(=O)c2ccc(Cl)cc2)cc1[N+](=O)[O-]", "Potency": "inconclusive: 5.01 µM [activator, single point]"}, {"smiles": "CCCCN(C(=O)CCC(=O)O)C1CC(=O)N(c2ccc(OCCC)cc2)C1=O", "note": "(centres undefined)", "activation": "inactive: 5.82%"}, {"smiles": "COc1ccc(CCNC(=S)Nc2ccc(C(C)C)cc2)cc1", "Potency": "inconclusive: 11.2 µM [activator, single point]"}, {"smiles": "CCC(C)N(C(=O)CSc1nncn1C)C1CCS(=O)(=O)C1", "note": "(centres undefined)", "Potency": "inconclusive: 5.62 µM [activator, partial curve, poor fit]"}, {"smiles": "CC1CCC2(CC1)NC(=O)N(CC(=O)NC(C)c1ccc(F)c(F)c1)C2=O", "note": "(centres undefined)", "Potency": "inconclusive: 11.2 µM [activator, single point]"}, {"smiles": "CN(C)CCCNc1nc(N)c([N+](=O)[O-])c(NC2CCCCC2)n1", "activation": "inactive: -67.9%"}, {"smiles": "COc1ccccc1N1CCN(C(=O)CCc2nnc3ccc(N4CCOCC4)nn23)CC1", "Potency": "inconclusive: 2.82 µM [activator, single point]"}, {"smiles": "CC(NC(=O)C(=O)N1CCCCC1)C(c1cccs1)N1CCN(c2ccccc2)CC1", "note": "(centres undefined)", "Potency": "inconclusive: 12.6 µM [activator, single point]"}, {"smiles": "CC(NC(=O)CN1CCOCC1)c1ccc(F)cc1", "note": "(centres undefined)", "Potency": "inconclusive: 1.41 µM [activator, partial curve, poor fit]"}, {"smiles": "COc1cc(S(=O)(=O)N2CCOCC2)ccc1NC(=O)COc1ccc(N(C)S(=O)(=O)c2ccc(C)cc2)cc1", "Potency": "inconclusive: 8.91 µM [activator, single point]"}, {"smiles": "Oc1[nH]c2ccccc2c1N=Nc1cccc(Cl)c1", "activation": "inactive: -17.8%"}, {"smiles": "CN(C(=O)COC(=O)c1c2c(nc3ccccc13)CCCC2)c1c(N)n(Cc2ccccc2)c(=O)[nH]c1=O", "Potency": "inconclusive: 10 µM [activator, partial curve, poor fit]"}, {"smiles": "Cn1ncc(Cl)c1C(=O)N1CCN(C(=O)c2ccco2)CC1", "Potency": "inconclusive: 2.51 µM [activator, single point]"}, {"smiles": "S=c1[nH]nc(-c2cc(-c3ccccc3)n[nH]2)n1/N=C/c1cccc(Cl)c1", "Potency": "inconclusive: 11.2 µM [activator, single point]"}, {"smiles": "CC(C)c1ccc(S(=O)(=O)N2CCN(C(C)C(=O)NC3CCCC3)CC2)cc1", "note": "(centres undefined)", "Potency": "inconclusive: 3.16 µM [activator, partial curve, poor fit]"}, {"smiles": "N#Cc1ccsc1NC(=O)CCN1CCN(C(c2ccccc2)c2ccccc2)CC1", "Potency": "inconclusive: 11.2 µM [activator, partial curve]"}, {"smiles": "COc1cccc(Nc2ncnc3sccc23)c1", "activation": "inactive: 0.399%"}, {"smiles": "Nc1c(C(=O)Nc2ccccc2F)sc2nc(Cc3ccccc3)cc(C(F)(F)F)c12", "activation": "inactive: 11.8%"}, {"smiles": "COc1ccc(C(=O)N=C2SC3CS(=O)(=O)CC3N2c2ccccc2)cc1OC", "note": "(centres undefined)", "Potency": "inconclusive: 5.01 µM [activator, single point]"}, {"smiles": "Cc1ccccc1C(=O)c1cccn1CC(=O)NCCCc1ccccc1", "activation": "inactive: 12.2%"}, {"smiles": "COc1ccc(NS(=O)(=O)c2ccc(O)c(C(=O)OCC(=O)NC3CCCCC3)c2)cc1", "Potency": "inconclusive: 3.98 µM [activator, single point]"}, {"smiles": "CCN(c1ccccc1)S(=O)(=O)c1ccc(OC)c(NC(=O)Cc2ccccc2OC)c1", "activation": "inactive: 0%"}]}]}
